# PubChem BioAssay AID504774, Drosophila RNAi Screening Center – 2011
# Test: 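Knock-downs that shift viability of MMS-exposed cells relative to untreated ones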 (primary screen)
# Cells: Drosophila Kc167 cells
# Reagents: long dsRNA against Drosophila genes, about 0.25 µg dsRNA per well
# Timing: about 6 days: 3 days knock-down, then 3 days with or without MMS
# Challenge: methyl methanesulphonate 0.004% (w/v) for 3 days after knock-down
# Read-out: 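Viability in wells given MMS, read as ATP luminescence, normalised by quantiles plate by plate and averaged across replicates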
# Direction: mean viability with MMS and viability with MMS: higher = more surviving cells after MMS
# In all, the deposit lists about 23,000 reagents; below is a random part of those that have a named target and a result. 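Values are quantile-normalised luminescence on an arbitrary scale; higher means more cells surviving MMS.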 The numbers tell different reagents against one gene apart.
Gene,dsRNA no.,mean viability with MMS,"viability with MMS, replicate 1","viability with MMS, replicate 2"
CG4615,1,3.49e6,3.86e6,4.07e6
CG4615,2,3.42e6,3.81e6,3.89e6
tum (tumbleweed),1,3.55e6,3.88e6,4.05e6
CG10041,1,3.55e6,4.00e6,4.05e6
CG17344,1,3.55e6,3.96e6,4.10e6
BomBc2 (Bomanin Bicipital 2),1,3.56e6,4.08e6,3.98e6
CG7409,1,3.52e6,4.01e6,3.99e6
CG10175,1,3.59e6,4.02e6,4.12e6
CG10175,2,3.68e6,4.24e6,4.10e6
CG10175,3,3.37e6,3.90e6,3.87e6
Secp43 (tRNA Selenocysteine associated protein),1,3.55e6,4.07e6,3.97e6
cyr (cypher),1,3.56e6,4.10e6,4.00e6
cyr (cypher),2,3.61e6,4.16e6,4.02e6
cyr (cypher),3,3.51e6,3.95e6,4.03e6
CG43163,1,3.55e6,3.82e6,4.24e6
CG43163,2,3.69e6,4.13e6,4.25e6
mura (murashka),1,3.27e6,3.69e6,3.87e6
mura (murashka),2,2.56e6,3.61e6,3.60e6
mura (murashka),3,3.54e6,4.00e6,4.05e6
CG12620,1,3.46e6,3.92e6,3.94e6
CG33346,1,3.44e6,3.94e6,3.92e6
Ubi-p63E (Ubiquitin-63E),1,3.70e6,4.17e6,4.14e6
crq (croquemort),1,3.56e6,4.02e6,4.09e6
CG43658,1,3.58e6,4.10e6,4.02e6
CG7248,1,3.79e6,4.19e6,4.30e6
CG31189,1,3.39e6,3.85e6,3.87e6
CG13230,1,3.48e6,3.86e6,3.98e6
CG43689,1,2.74e6,3.40e6,3.34e6
CG43689,2,3.57e6,4.05e6,4.02e6
CG43689,3,2.78e6,3.74e6,2.34e6
Adgf-C (Adenosine deaminase-related growth factor C),1,3.51e6,4.08e6,3.88e6
Cdep (Chondrocyte-derived ezrin-like domain containing protein),1,3.52e6,3.92e6,4.07e6
Cdep (Chondrocyte-derived ezrin-like domain containing protein),2,3.49e6,3.93e6,3.96e6
Cdep (Chondrocyte-derived ezrin-like domain containing protein),3,3.28e6,3.68e6,3.72e6
JTBR,1,3.45e6,3.97e6,3.88e6
ALiX (ALG-2 interacting protein X),1,3.61e6,4.08e6,4.10e6
Art7 (Arginine methyltransferase 7),1,3.59e6,4.01e6,4.14e6
MBD-like (Methyl-CpG binding domain protein-like),1,3.56e6,4.03e6,4.04e6
Obp58c (Odorant-binding protein 58c),1,3.72e6,4.02e6,4.38e6
SWIP (Strumpellin and WASH-interacting protein),1,3.48e6,3.98e6,3.90e6
CG4424,1,3.54e6,4.08e6,3.96e6
CG32599,1,3.45e6,3.84e6,3.86e6
Dhc16F (Dynein heavy chain at 16F),1,3.61e6,4.09e6,4.09e6
Wnt5 (Wnt oncogene analog 5),1,3.24e6,3.58e6,3.63e6
Trmt112 (tRNA methyltransferase subunit 11-2),1,3.57e6,4.05e6,4.04e6
CG31064,1,3.45e6,3.92e6,3.85e6
CG31064,2,3.51e6,3.95e6,3.98e6
CG31064,3,3.53e6,3.95e6,4.05e6
CG31064,4,3.30e6,3.64e6,3.71e6
